Reference: PubChem BioAssay AID1259308 (NCATS, 2017)
Test: 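Genes whose loss raises luciferase production in HEK293 cells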 (primary screen). Cells: human HEK293 embryonic kidney cells stably expressing firefly luciferase (HEK-CMV-Luc2-Hygro). Knock-down reagent: single siRNA against human genes, 0.8 pmol siRNA per well. Time to read-out: 72 h. Measurement: 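Reporter luminescence and viable-cell signal on separate replicate plates, given as percent of non-targeting control and median/MAD z-scores, plus per-cell luciferase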. Scale: total luciferase, z-score: higher = more reporter protein produced. Hit rule: 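Active when the median/MAD z-score for overall luciferase is greater than 3; a gene was taken forward for validation with new siRNAs if at least two of its three siRNAs passed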. Meaning of the calls: active = raised luciferase; inactive = no rise.
Shown is an unselected part of about 59,000 reagents. About 1,510 of them (2.6%) count as active. 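Calls use total luciferase alone and ignore viability, so some active siRNAs may act by altering cell number.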 Reagents against one gene are numbered here. Further read-outs or replicates are left out here.

What is on record for PAIP2 #1?
total luciferase, z-score: 3.87; call: active

For PAIP2 #2, how do the results read?
total luciferase, z-score: -1.07; call: inactive

With PAIP2 #3, what does the deposit list?
total luciferase, z-score: -0.0197; call: inactive

For RP2 #1, what does the deposit list?
total luciferase, z-score: 1.17; call: inactive

What is on record for RP2 #2?
total luciferase, z-score: 1.12; call: inactive

With RP2 #3, what does the deposit list?
total luciferase, z-score: 0.574; call: inactive

How did the screen score HERC6 #1?
total luciferase, z-score: -1.91; call: inactive

With HERC6 #2, how do the results read?
total luciferase, z-score: -0.267; call: inactive

What is on record for HERC6 #3?
total luciferase, z-score: -0.779; call: inactive

What is on record for FN3K #1?
total luciferase, z-score: 2.32; call: inactive

For FN3K #2, how do the results read?
total luciferase, z-score: -0.209; call: inactive

What did the screen give for FN3K #3?
total luciferase, z-score: -0.85; call: inactive

What is on record for XAB2 #1?
total luciferase, z-score: 2.19; call: inactive

How did the screen score XAB2 #2?
total luciferase, z-score: 2.44; call: inactive

What is on record for XAB2 #3?
total luciferase, z-score: 0.451; call: inactive

How did the screen score RING1 #1?
total luciferase, z-score: 1.27; call: inactive

For RING1 #2, what does the deposit list?
total luciferase, z-score: -0.0287; call: inactive

For RING1 #3, how do the results read?
total luciferase, z-score: 4.87; call: active

Which result is listed for GUCY2C #1?
total luciferase, z-score: -2.66; call: inactive

What did the screen give for GUCY2C #2?
total luciferase, z-score: -0.659; call: inactive

What is on record for GUCY2C #3?
total luciferase, z-score: -0.0657; call: inactive

What did the screen give for PDE11A #1?
total luciferase, z-score: -0.0441; call: inactive

For PDE11A #2, how do the results read?
total luciferase, z-score: -0.391; call: inactive

How did the screen score PDE11A #3?
total luciferase, z-score: 0.664; call: inactive

For ARRDC5 #1, how do the results read?
total luciferase, z-score: 0.0375; call: inactive

Which result is listed for ARRDC5 #2?
total luciferase, z-score: 0.0233; call: inactive

With ARRDC5 #3, how do the results read?
total luciferase, z-score: -0.481; call: inactive

With TBX5 #1, what was measured?
total luciferase, z-score: -0.294; call: inactive

Which result is listed for TBX5 #2?
total luciferase, z-score: 3.22; call: active

Which result is listed for TBX5 #3?
total luciferase, z-score: 1.03; call: inactive

How did the screen score MBNL1-AS1 #1?
total luciferase, z-score: -1.14; call: inactive

For MBNL1-AS1 #2, what does the deposit list?
total luciferase, z-score: -2.01; call: inactive

With MBNL1-AS1 #3, how do the results read?
total luciferase, z-score: 0.523; call: inactive

For DIMT1 #1, how do the results read?
total luciferase, z-score: -1.08; call: inactive

What did the screen give for DIMT1 #2?
total luciferase, z-score: -0.536; call: inactive

For DIMT1 #3, what was measured?
total luciferase, z-score: 0.904; call: inactive

How did the screen score LOC648999 (retired record) #1?
total luciferase, z-score: 1.77; call: inactive

How did the screen score LOC648999 (retired record) #2?
total luciferase, z-score: -0.346; call: inactive

How did the screen score LOC648999 (retired record) #3?
total luciferase, z-score: 1.09; call: inactive

What did the screen give for GMNC #1?
total luciferase, z-score: 0.969; call: inactive

How did the screen score GMNC #2?
total luciferase, z-score: 4.42; call: active

For GMNC #3, what does the deposit list?
total luciferase, z-score: 0.289; call: inactive

No new results follow: entries from further up.
MBNL1-AS1 #3 → total luciferase, z-score: 0.523; call: inactive
DIMT1 #1 → total luciferase, z-score: -1.08; call: inactive
DIMT1 #2 → total luciferase, z-score: -0.536; call: inactive
DIMT1 #3 → total luciferase, z-score: 0.904; call: inactive
LOC648999 (retired record) #1 → total luciferase, z-score: 1.77; call: inactive
LOC648999 (retired record) #2 → total luciferase, z-score: -0.346; call: inactive
